From PubChem BioAssay AID493014 (National Center for Advancing Translational Sciences (NCATS), 2011)
The other results are listed elsewhere or left out. These are further read-outs of the screen, such as a control signal, another cell line or another target. No call is given for them. Compounds called inactive in the main read-out are mostly missing here. Words in brackets tell the shape of the fitted curve; partial curves, single points and poor fits give uncertain potencies.

Assay: qHTS Assay to Find Inhibitors of Chronic Active B-Cell Receptor Signaling
Settings: ABC-DLBCL IkBa-CBG/CBR reporter, luminescence ratio (green luciferase fused to IkBa over red control in TMD8 lymphoma cells), 4 h
Procedure, shortened: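 Doxycycline induced both beetle luciferases in TMD8 lymphoma cells; IKK-driven degradation limits the IkappaBalpha-fused green signal, while red luminescence normalises for cell number and nonspecific effects. Compounds tested up to 46 uM, 4 hrs.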

[1] = measured here: CBR red luminescence, cell number
[2] = measured here: IkBa-CBG green luminescence

SMILES | AC50 [1] | AC50 [2]
Cc1cc(C)c(C(=O)N2CCCC(C(=O)c3cc(F)ccc3F)C2)o1 (stereo unspecified) | 0.501 µM [rising, full curve, poor fit] | –
Cc1cc(C(=O)N/N=C/C=C/c2ccc3c(c2)OCO3)n[nH]1 | 3.16 µM [falling, partial curve, poor fit] | –
CCc1cccc(NC(=O)CCSCCC(=O)Nc2cccc(CC)c2)c1 | 20.6 µM [falling, single point] | –
COc1cc2ncnc(NCc3ccc(F)cc3)c2cc1OC | 6.31 µM [rising, single point] | –
Cc1c(C(=O)NCc2ccc3c(c2)OCO3)oc2ccc(S(=O)(=O)N3CCCC3)cc12 | 1.16 µM [rising, full curve, poor fit] | –
Cc1ccc(Cl)cc1C1=CC(=O)C[C@H](c2ccc(F)cc2)C1 | 0.00411 µM [rising, full curve, poor fit] | –
O=C(NNC(=S)NCc1ccc(Cl)cc1)c1ccc(Br)o1 | 35.5 µM [falling, single point] | –
CCOc1ccc2nc(SCc3ccc(F)cc3)sc2c1 | 16.4 µM [rising, single point] | –
COc1ccc(S(=O)(=O)n2nc(OC(=O)c3ccccc3Br)cc2N)cc1 | 8.91 µM [falling, partial curve, poor fit] | –
C=CCn1c(SCC(=O)Nc2ccccc2C)nnc1-c1ccncc1 | 9.2 µM [falling, single point] | –
O=C(CCCSc1nc2sc3c(c2c(=O)[nH]1)CCC3)NCCO | 25.1 µM [falling, single point] | –
CCN(CC)S(=O)(=O)c1ccc(N2CCCC2)c(C(=O)OCC(=O)Nc2cc(C)on2)c1 | 4.47 µM [rising, partial curve, poor fit] | –
Cc1ccc2[nH]c(=O)c(CN(Cc3ccco3)S(=O)(=O)c3c(C)ccc4nsnc34)cc2c1 | 25.9 µM [rising, partial curve] | –
CCOC(=O)C1=C(c2ccccc2)NC(=O)NC1c1ccsc1 (stereo unspecified) | 14.1 µM [falling, partial curve, poor fit] | –
COc1ccc(/C=N/NC2=NS(=O)(=O)c3ccccc32)cc1OC | 31.6 µM [rising, single point] | –
CC1=CC(C)(C)Nc2ccc(OC(=O)CN3C(=O)c4ccccc4C3=O)cc21 | 18.4 µM [falling, single point] | –
O=C(CCNC(=O)c1ccc([N+](=O)[O-])cc1)Nc1nc2ccccc2[nH]1 | 6.51 µM [rising, single point] | –
Cc1nc(SCc2ccc(C(=O)O)cc2)c2c(C)c(C)sc2n1 | 35.5 µM [falling, single point] | –
CC(C)(C)c1ccc(CN2N=C(/C=C/c3ccccc3)CCC2=O)cc1 | 35.5 µM [falling, single point] | –
O=C(NCc1ccco1)C1CC(c2cc(C(F)(F)F)cc(C(F)(F)F)c2)=NO1 (stereo unspecified) | 31.6 µM [rising, single point] | 22.4 µM [falling, single point]
COC(=O)c1ccc(S(=O)(=O)NCc2ccco2)o1 | 1.41 µM [falling, single point] | –

SMILES | AC50 [1] | AC50 [2]
O=C(COc1ccc2ccccc2c1)NC1=NCCS1 | 29.1 µM [falling, single point] | –
C(=N\Nc1nc2ccccc2[nH]1)/c1cccs1 | 14.1 µM [falling, partial curve] | 12.6 µM [falling, single point]
CCOc1ccc(CN2CCNC(=O)C2CC(=O)NCCN2CCOC2=O)cc1 (stereo unspecified) | 35.5 µM [falling, partial curve, poor fit] | –
CC(C)CCN(C(=O)c1csnn1)C(C(=O)NC1CCCC1)c1ccc(F)cc1 (stereo unspecified) | 28.2 µM [falling, partial curve, poor fit] | –
O=C(NCC1CCCO1)C(c1ccncc1)N(Cc1cccs1)C(=O)Cn1nnc(-c2ccc(F)cc2)n1 (stereo unspecified) | 6.31 µM [rising, partial curve, poor fit] | –
Cc1cc(NS(=O)(=O)c2ccc(C3CCCCC3)cc2)no1 | 11.2 µM [rising, partial curve, poor fit] | –
Cc1cc(NC(=O)CSc2nnc(-c3ccoc3C)o2)no1 | – | 35.5 µM [falling, single point]
CCC(=O)NC(c1ccc([N+](=O)[O-])cc1)c1c(O)ccc2ccccc12 (stereo unspecified) | 13 µM [falling, partial curve, poor fit] | –
COc1cc2cc(C(=O)N/N=C/c3ccc(F)cc3)[nH]c2cc1OC | 20 µM [falling, single point] | –
COc1ccccc1N(O)C1CC(=O)N(c2ccc(Br)cc2)C1=O (stereo unspecified) | 1.16 µM [falling, full curve] | –
O=[N+]([O-])c1cccc(-c2ccc(/C=N/NC(=S)Nc3ccccc3)o2)c1 | 2.82 µM [rising, partial curve, poor fit] | –
Cc1cc(=O)oc2cc(OCC(=O)Nc3nnc(C(C)C)s3)ccc12 | 1.84 µM [rising, partial curve, poor fit] | –
O=C1CCn2nc(-c3ccc(Cl)cc3)cc2N1 | 6.51 µM [rising, single point] | –
O=C(Cc1cccs1)Nc1nc(-c2ccc(F)c(F)c2)cs1 | 14.1 µM [falling, single point] | –
CN(C)c1ccc(/C(=N\O)c2ccccc2)cc1 | 29.1 µM [falling, single point] | –
COCCCN=Cc1c(-c2ccccc2)[nH]n(-c2nc3ccccc3s2)c1=O | 1.26 µM [rising, partial curve] | –
CC(C)(C)C(=O)Cn1ncc(Cl)c(Cl)c1=O | 25.1 µM [falling, single point] | 6.31 µM [rising, partial curve, poor fit]
C[C@H]1CN([C@@H](C)CO)C(=O)c2cccc(NC(=O)Nc3ccc(C(F)(F)F)cc3)c2O[C@@H]1CN(C)S(=O)(=O)c1ccccc1 | 18.4 µM [falling, single point] | –
CC(C)c1cc(NCCOCCO)n2c(nc3ccccc32)c1C#N | 3.16 µM [falling, single point] | –
CCOC(=O)C1CCN(c2c(-c3ccccc3)c3cc(Cl)ccc3[nH]c2=O)CC1 | 16.4 µM [falling, partial curve, poor fit] | –
COc1ccc2c(Cl)c(-c3nnc4n3CCCCC4)sc2c1 | 7.08 µM [falling, partial curve, poor fit] | –

Entries of single compounds, looked up by structure. Values in the order: AC50 [1]	AC50 [2]
CN(C)c1ccc(/C(=N\O)c2ccccc2)cc1 as listed: 29.1 µM [falling, single point]	–
CCC(=O)NC(c1ccc([N+](=O)[O-])cc1)c1c(O)ccc2ccccc12 (stereo unspecified) as listed: 13 µM [falling, partial curve, poor fit]	–
COc1cc2cc(C(=O)N/N=C/c3ccc(F)cc3)[nH]c2cc1OC as listed: 20 µM [falling, single point]	–
CC(C)(C)C(=O)Cn1ncc(Cl)c(Cl)c1=O as listed: 25.1 µM [falling, single point]	6.31 µM [rising, partial curve, poor fit]

Next part.

SMILES | AC50 [1] | AC50 [2]
CCOC(=O)C1=C(N)OC2=C(C(=O)CCC2)C1c1ccccc1OCC (stereo unspecified) | 17.8 µM [rising, partial curve, poor fit] | –
FC(F)(F)c1cnc(N2CCSCC2)c(Cl)c1 | 0.0891 µM [rising, full curve, poor fit] | –
N#Cc1cc(Sc2ccccn2)c([N+](=O)[O-])cc1C#N | 20 µM [falling, single point] | –
COC(=O)CSc1ccc2nnc(-c3ccc(F)cc3)n2n1 | 35.5 µM [falling, single point] | –
Cc1ccc([N+](=O)[O-])cc1S(=O)(=O)N1CCCN(C)CC1 | 5.01 µM [rising, full curve, poor fit] | –
O=C(c1ccc(Cl)cc1[N+](=O)[O-])N(Cc1ccccc1)Cc1ccccc1 | 20.6 µM [falling, partial curve, poor fit] | –
Cc1noc(C(=O)NC2CCCCC2)c1Cl | 28.2 µM [falling, single point] | –
COC(=O)c1ccc(CNC(=O)c2ccc(NS(=O)(=O)c3ccc4[nH]c(=O)[nH]c4c3)cc2)cc1 | 29.1 µM [rising, partial curve, poor fit] | –
Cc1nc2nc[nH]n2c(=O)c1NC(=O)CC12CC3CC(CC(C3)C1)C2 | 29.1 µM [falling, single point] | –
COc1ccc(S(=O)(=O)N2CCCC2CNC(=O)C(=O)NCc2ccco2)cc1 (stereo unspecified) | 6.51 µM [rising, single point] | –
CCN(CC)c1ccc(/C=N/NC(=O)c2ccco2)c(O)c1 | 11.2 µM [falling, partial curve, poor fit] | –
CCOc1ccc(CCNC(=O)CCC(=O)N2CCOc3ccccc32)cc1OCC | 5.62 µM [falling, full curve] | –
COc1ccc2c(c1)CC/C(=C\c1ccc(OC)c(Cn3nc(C)cc3C)c1)C2=O | 29.1 µM [falling, single point] | –
Cc1cccc(C(=O)n2c(=S)nc3ccccn32)c1 | 3.26 µM [falling, full curve] | –
CCOC(=O)C1CCN(C(=O)c2cc(COc3ccc(F)cc3F)on2)CC1 | 28.2 µM [falling, partial curve, poor fit] | –
Nc1ccccc1SC/C=C/CSc1ccccc1N | 0.501 µM [rising, full curve, poor fit] | –
Cc1cccc(-n2ncc3c(NCCCn4ccnc4)ncnc32)c1 | – | 3.26 µM [rising, full curve, poor fit]
COc1ccc(O)c(/C=N/Nc2nc3ccccc3[nH]2)c1 | 35.5 µM [falling, single point] | –
COc1ccccc1NC(CC(=O)c1ccccc1)C(=O)OCC(=O)c1ccc(C)c(C)c1 (stereo unspecified) | 9.2 µM [falling, partial curve] | –
O=C(Nc1ccc(N2CCN(C(=O)c3ccccc3)CC2)c(Cl)c1)c1ccco1 | 25.9 µM [falling, single point] | –
COc1ccc(Cn2c(O)c(/C=N/NC(=O)c3cccnc3)c3ccccc3c2=O)cc1 | 8.91 µM [falling, partial curve] | –
